Results reported in PMC2672170.
Results are given in words; binding and its absence hold for the method and conditions named.

Molecular target: T1, H2Av C-terminal tail peptide, unphosphorylated (Drosophila melanogaster)
T1 sequence (peptide, biotin on the N-terminus): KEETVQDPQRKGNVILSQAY
Experiment: pull-down; N-terminally biotinylated H2Av peptides (phosphorylated or unphosphorylated) on streptavidin agarose beads, incubated with bacterially expressed and purified GST, GST-FHA or GST-BRCT of MU2; Coomassie-stained SDS-PAGE, bands identified by mass spectrometry; according to Stucki et al.; both purified

| binding | Substance |
| --- | --- |
| no binding | GST-BRCT domain of MU2 (C-terminal domain, aa 1019-1259 of MU2-PB) (Drosophila melanogaster) (domain or fragment) |
| no binding | GST-FHA domain of MU2 (N-terminal domain, aa 1-250 of MU2-PB) (Drosophila melanogaster) (domain or fragment) |
